Some of these results come from one statement about several compounds together.
How the values were obtained:
Assay type in all cases: in vivo
[1] = test system: Plutella xylostella (Diamond Back Moth); experiment: Plutella xylostella larvae test on artificial diet; conditions: application rate 200 ppm (concentration in well 18 ppm), L2 larvae, larval mortality and growth regulation after 6 days
Procedure: (§1) This Example illustrates the pesticidal/insecticidal properties of compounds of formula (I). Tests were performed as follows:
(§2) • Cotton leaf discs were placed on agar in a 24-well microtiter plate and sprayed with test solutions at an application rate of 200 ppm. After drying, the leaf discs were infested with 5 L1 larvae. The samples were checked for mortality, feeding behaviour, and growth regulation 3 days after treatment (DAT). • The following compounds gave at least 80% control of Spodoptera littoralis: A1, A2, A3, A4, A5, A6, A10, A13, A17, A19. Heliothis virescens (Tobacco Budworm): • Eggs (0-24 h old) were placed in 24-well microtiter plate on artificial diet and treated with test solutions at an application rate of 200 ppm (concentration in well 18 ppm) by pipetting. After an incubation period of 4 days, samples were checked for egg mortality, larval mortality, and growth regulation. • The following compounds gave at least 80% control of Heliothis virescens: A1, A2, A3, A4, A5, A6, A7, A9, A10, A11, A12, A14, A17, A18, A19, A21. Plutella xylostella (Diamond Back Moth): • 24-well microtiter plate (MTP) with artificial diet was treated with test solutions at an application rate of 200 ppm (concentration in well 18 ppm) by pipetting. After drying, the MTP's were infested with L2 larvae (7-12 per well). After an incubation period of 6 days, samples were checked for larval mortality and growth regulation. • The following compounds gave at least 80% control of Plutella xylostella: A1, A2, A3, A5, A6, A7, A10, A17, A18, A19. Diabrotica balteata (Corn Root Worm): • A 24-well microtiter plate (MTP) with artificial diet was treated with test solutions at an application rate of 200 ppm (concentration in well 18 ppm) by pipetting. After drying, the MTP's were infested with L2 larvae (6-10 per well). After an incubation period of 5 days, samples were checked for larval mortality and growth regulation. • The following compounds gave at least 80% control of Diabrotica balteata: A1, A2, A3, A5, A15, A16, A18, A19.

[2] = test system: Heliothis virescens (Tobacco Budworm); experiment: Heliothis virescens egg test on artificial diet; conditions: application rate 200 ppm (concentration in well 18 ppm), eggs 0-24 h old on artificial diet, egg mortality, larval mortality and growth regulation after 4 days
Procedure: as §1, §2

[3] = test system: Diabrotica balteata (Corn Root Worm); experiment: Diabrotica balteata larvae test on artificial diet; conditions: application rate 200 ppm (concentration in well 18 ppm), L2 larvae, larval mortality and growth regulation after 5 days
[4] = test system: Spodoptera littoralis (Egyptian Cotton Leafworm); experiment: Spodoptera littoralis cotton leaf disc spray test; conditions: application rate 200 ppm, sprayed cotton leaf discs, 5 L1 larvae, mortality, feeding behaviour and growth regulation 3 days after treatment
Procedure: as §1
Spodoptera littoralis (Egyptian Cotton Leafworm):
as §2

Row | SMILES | control of Plutella xylostella [1] | control of Heliothis virescens [2] | control of Diabrotica balteata [3] | control of Spodoptera littoralis [4]
1 | Cc1cc(C2(C(F)(F)F)CC(c3ccc(Cl)cc3)=NO2)cc(C)c1NC(=O)c1ccc(C#N)c(NC(=O)c2snnc2C)c1 (stereo not shown) [A18] | at least 80% | at least 80% | at least 80% | –
2 | Cc1cc(C2(C(F)(F)F)CC(c3ccc(Cl)cc3)=NO2)cc(C)c1NC(=O)c1ccc(C#N)c(NC(=O)c2ccccc2Cl)c1 (stereo not shown) [A6] | at least 80% | at least 80% | – | at least 80%
3 | Cc1cc(C2(C(F)(F)F)CC(c3ccc(Cl)cc3)=NO2)cc(C)c1NC(=O)c1ccc(C#N)c(NC(=O)c2ccccc2F)c1 (stereo not shown) [A4] | – | at least 80% | – | at least 80%
4 | Cc1ccccc1C(=O)Nc1cc(C(=O)Nc2c(C)cc(C3(C(F)(F)F)CC(c4ccc(Cl)cc4)=NO3)cc2C)ccc1C#N (stereo not shown) [A5] | at least 80% | at least 80% | at least 80% | at least 80%
5 | Cc1cc(C2(C(F)(F)F)CC(c3ccc(Cl)cc3)=NO2)cc(C)c1NC(=O)c1ccc(C#N)c(NC(=O)c2ccco2)c1 (stereo not shown) [A11] | – | at least 80% | – | –
